From PubChem BioAssay AID463206 (Broad Institute, 2010)
This is one part of the list. Results with a measured potency or affinity are listed apart. The source made no clear call on entries shown without one.

Assay: inhibitors of cytokine-induced caspase-3/7 activity, dose response, orthogonal assay for beta-cell apoptosis protection project, INS-1E rat cells, luminescence (AID 463206)
Details: INS-1E cytokine-induced caspase-3/7, Caspase-Glo luminescence, 48 h; at 26 µM (top of the series) unless noted

Compound	activity change, negative = inhibition
CCN1/C(=C\C=C\C2=[N+](CC)c3ccccc3C2(C)C)C(C)(C)c2ccccc21	51.8%
CC(C)(C)c1ccc(CSc2cnn(C(C)(C)C)c(=O)c2Cl)cc1	48%
COc1cc2c(cc1OC)[C@@H]1C(=O)c3ccc4c(c3O[C@@H]1CO2)C[C@H](C(C)C)O4	51.3% [at 12 µM]
